The assay has as its target T1, JunB (human (endogenous in THP-1)) (UniProt P17275).
T1 sequence: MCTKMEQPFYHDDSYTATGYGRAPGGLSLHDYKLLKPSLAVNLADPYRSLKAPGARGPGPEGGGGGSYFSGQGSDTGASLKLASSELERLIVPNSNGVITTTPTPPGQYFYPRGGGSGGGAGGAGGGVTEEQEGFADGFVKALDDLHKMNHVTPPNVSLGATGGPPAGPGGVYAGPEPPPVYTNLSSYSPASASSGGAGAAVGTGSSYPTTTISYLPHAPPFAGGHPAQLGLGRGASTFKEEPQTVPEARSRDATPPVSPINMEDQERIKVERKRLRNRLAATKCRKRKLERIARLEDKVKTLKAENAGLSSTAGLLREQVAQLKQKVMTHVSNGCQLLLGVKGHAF
The assay can be described thus: co-IP.

Sequences of proteins named here, by UniProt entry; tags and fusion partners are left off.
UniProt O15379: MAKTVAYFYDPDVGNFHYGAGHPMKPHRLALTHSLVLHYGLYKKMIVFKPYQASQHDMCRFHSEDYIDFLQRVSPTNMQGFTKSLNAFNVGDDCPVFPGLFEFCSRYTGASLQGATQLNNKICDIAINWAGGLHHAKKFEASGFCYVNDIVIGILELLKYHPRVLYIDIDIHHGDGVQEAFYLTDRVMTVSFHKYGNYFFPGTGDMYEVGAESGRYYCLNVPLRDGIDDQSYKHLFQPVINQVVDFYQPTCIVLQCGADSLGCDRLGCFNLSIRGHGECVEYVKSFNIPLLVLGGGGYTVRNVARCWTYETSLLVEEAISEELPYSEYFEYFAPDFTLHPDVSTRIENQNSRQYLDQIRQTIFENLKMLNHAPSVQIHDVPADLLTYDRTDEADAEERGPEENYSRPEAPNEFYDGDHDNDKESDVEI

Results are given in words; binding and its absence hold for the method and conditions named. In cells and extracts the contact can be indirect. Some entries that bind do so weakly or less than the wild type.

We go through 1 substance from publication doi:10.1101/2022.07.11.499655.

Consider “HDAC3 (from UniProt O15379 1-428) (enzyme)”, for which the binding result is listed as “binds”.
